Experimental data: the supplement of paper PMC5949888
Most values lie at the floor of the assay. Slopes are relative: functional sequences can read slightly below zero.

These substances were tested on Saccharomyces cerevisiae PS128 hsf1 delta, HSF1(1-493) fusion (assay: growth estimate (transactivation domain function in HSF1 fusion, heat-shock survival) (a.u. (slope of normalised read count over time)); higher = stronger growth at 37°C, i.e. more transactivation activity). Details: library: random library.

Substance	growth estimate
YLVLSCRCSIRT	< -0.25
AAARGRSHPLSSTDVSGWKT	< -0.25
CYSIQDTLLPTPPGCGQVSG	< -0.25
INGFYEPLRELIWEF	0.124
VGAGKDRERPGRLVATCTSH	< -0.25
LVDRLKGVSIR	< -0.25
IESRQWLRSER	< -0.25
RCR	< -0.25
VDRGWESLNYGNAVTFKKFQ	< -0.25
QDLVPFRHAEVHYNRVNDVV	< -0.25
YCGEGASESNRPRDIRIILP	< -0.25
VQGVCAIG	< -0.25
MLLLAW	< -0.25
SGVSLFNH	< -0.25
RSSTDKATLG	< -0.25
RDDHLGGYWTNSFYVGCEQY	< -0.25
PIKKPHECYSQLHCHTGVVV	< -0.25
CAAA	< -0.25
CVCRTACRSSTAVIGRALAF	< -0.25
KSRIIGPVDCDRPNEASPTR	< -0.25
ERVILGDSQ	< -0.25
CITRRKESVVRAFLYVITVA	< -0.25
GTLHLPYESRWDSLYSVCDA	< -0.25
HIQSPYPGSPWSLGYISL	-0.114
TDTVLLCAKESRFFTR	-0.193
KPLSNV	< -0.25
KVQVSPVAINNTSVLVLGMM	< -0.25

Substance	growth estimate
RGVQSSELPSLTSITLV	< -0.25
RTNEITEIC	< -0.25
CTMCQ	< -0.25
KINPLRRWRIPNFGGAPGSS	< -0.25
QRVLVVSDTDDWLEFTLRRM	< -0.25
LRRRPKVCYSWRYV	< -0.25
MRMFPPMN	< -0.25
FVHGRRSR	< -0.25
RGVGSTRKGPTLAKCVPGLL	< -0.25
TSLGYSIICGCDNGST	< -0.25
RNDIN	< -0.25
GFTYRPGV	< -0.25
EFSFVP	< -0.25
QLRSDRVQPALRVTVHKWRR	< -0.25
CWSLDYEKMSLRFVIRLTDI	< -0.25
PGILSS	< -0.25
GRSCHSRLDTPVRSLASPNA	< -0.25
NLATRAWEPSRGVRQHRFYY	< -0.25
QAGSSRDTMPFVDPDKGAAS	< -0.25
ETDRLATNRIWWRTMGLLQA	< -0.25
AAPLKMHLVTSLPLNAYGIA	< -0.25
LSFWPLTTWLALKGLHSDLR	< -0.25
SKLPRLFSSVGTMLGRVRTA	-0.236
IISSPGRVSHCTWTEKSVVI	< -0.25
LSTTTFTRRGRGAISCTRNI	< -0.25
PSSPDTSVLRKGYN	< -0.25
FIRSIQVLRKVCGRVLSYTG	< -0.25

Shown as comma-separated lines: entries from further up
Substance,growth estimate
FVHGRRSR,< -0.25
RGVGSTRKGPTLAKCVPGLL,< -0.25
TSLGYSIICGCDNGST,< -0.25
RNDIN,< -0.25
GFTYRPGV,< -0.25
EFSFVP,< -0.25

Going on with the list:

Substance	growth estimate
FSSVPQKICLLQHRLNSSWQ	< -0.25
RCGVATCEQQGYAGLSTGPL	< -0.25
NVYRLAASIAD	< -0.25
CWVCDIRAYCRLVAFPKLKV	< -0.25
ILFRPA	< -0.25
EGRK	< -0.25
QRLFSHVCYGIPIIYVERHR	< -0.25
HVQVTFPVPAQWVASLYWRV	-0.245
TDYLRSRERGFQRLERSLRL	< -0.25
YRQTG	< -0.25
EMGTATHVKCNSRKIEGNQP	< -0.25
STYGY	< -0.25
VVRCVG	< -0.25
RISAAMRMSDGSGLSLIVDH	< -0.25
QTKLGLGISSYGPRF	< -0.25
IAGPEGRRALSWLFIEP	< -0.25
MTDISSDGSRFCTRMPRKAT	< -0.25
LVSAR	< -0.25
RCVVVVGANNRKVMPLRRHR	< -0.25
KVSSTMVHDSVTLSNIYGYR	< -0.25
LPAASSSKDWVPTGLVQLII	< -0.25
YETFGKPKCGYGGSPSDRKG	< -0.25
GRTIHIESRQDLRWRLGCAL	< -0.25
IIT	0.0112
LCRSVCQLKSGPLEYGPFCY	< -0.25
